According to publication PMC5691081:
Substitutions are numbered along the chain they refer to. Results are given in words; binding and its absence hold for the method and conditions named. In cells and extracts the contact can be indirect. Some binding calls cover weakened binding; strength is not graded here. Where a sequence is shown, tags or fusion partners need not be part of it.

Sequences of proteins named here, by UniProt entry; tags and fusion partners are left off.
UniProt Q9NSV4: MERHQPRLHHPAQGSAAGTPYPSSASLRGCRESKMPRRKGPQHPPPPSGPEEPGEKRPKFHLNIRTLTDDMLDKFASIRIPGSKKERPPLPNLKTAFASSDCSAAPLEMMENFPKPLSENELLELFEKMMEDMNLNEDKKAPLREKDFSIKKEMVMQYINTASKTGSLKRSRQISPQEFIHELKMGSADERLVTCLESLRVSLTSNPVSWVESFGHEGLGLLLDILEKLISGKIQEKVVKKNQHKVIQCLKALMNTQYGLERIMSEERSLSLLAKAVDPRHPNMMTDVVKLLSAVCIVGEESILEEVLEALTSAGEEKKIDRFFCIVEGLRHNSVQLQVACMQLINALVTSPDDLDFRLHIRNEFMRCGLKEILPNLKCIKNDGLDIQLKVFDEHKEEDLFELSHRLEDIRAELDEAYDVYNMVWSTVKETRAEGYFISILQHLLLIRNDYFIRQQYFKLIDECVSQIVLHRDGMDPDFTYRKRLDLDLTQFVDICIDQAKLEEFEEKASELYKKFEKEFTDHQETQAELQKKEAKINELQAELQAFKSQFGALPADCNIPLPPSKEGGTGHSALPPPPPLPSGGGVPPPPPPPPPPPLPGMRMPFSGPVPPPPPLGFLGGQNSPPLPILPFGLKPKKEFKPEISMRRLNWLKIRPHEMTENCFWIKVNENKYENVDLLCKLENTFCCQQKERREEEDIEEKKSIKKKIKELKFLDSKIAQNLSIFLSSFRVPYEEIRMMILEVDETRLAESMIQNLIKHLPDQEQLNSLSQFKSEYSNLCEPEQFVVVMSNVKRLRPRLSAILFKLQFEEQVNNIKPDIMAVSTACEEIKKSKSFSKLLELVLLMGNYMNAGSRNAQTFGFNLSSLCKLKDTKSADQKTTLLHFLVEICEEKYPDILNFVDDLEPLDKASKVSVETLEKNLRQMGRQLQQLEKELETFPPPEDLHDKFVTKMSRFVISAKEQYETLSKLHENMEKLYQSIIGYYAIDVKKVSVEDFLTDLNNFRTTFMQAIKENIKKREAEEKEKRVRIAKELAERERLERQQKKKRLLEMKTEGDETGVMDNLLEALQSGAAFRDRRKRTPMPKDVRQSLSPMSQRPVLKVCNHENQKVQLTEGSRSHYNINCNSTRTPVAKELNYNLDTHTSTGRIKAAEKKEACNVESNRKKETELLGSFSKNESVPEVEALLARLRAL

Legend:
[1] = molecular target: T1, GFP-anillin-RQPL(41–44)-AAAA (human) (UniProt Q9NQW6); test: co-IP; GFP-Trap beads, lysates of stable HeLa lines induced with 1 µg/ml Dox for 24 h; 1% Triton X-100, 150 mM NaCl, overnight at 4 °C; anti-DIAPH3 blot
T1 sequence: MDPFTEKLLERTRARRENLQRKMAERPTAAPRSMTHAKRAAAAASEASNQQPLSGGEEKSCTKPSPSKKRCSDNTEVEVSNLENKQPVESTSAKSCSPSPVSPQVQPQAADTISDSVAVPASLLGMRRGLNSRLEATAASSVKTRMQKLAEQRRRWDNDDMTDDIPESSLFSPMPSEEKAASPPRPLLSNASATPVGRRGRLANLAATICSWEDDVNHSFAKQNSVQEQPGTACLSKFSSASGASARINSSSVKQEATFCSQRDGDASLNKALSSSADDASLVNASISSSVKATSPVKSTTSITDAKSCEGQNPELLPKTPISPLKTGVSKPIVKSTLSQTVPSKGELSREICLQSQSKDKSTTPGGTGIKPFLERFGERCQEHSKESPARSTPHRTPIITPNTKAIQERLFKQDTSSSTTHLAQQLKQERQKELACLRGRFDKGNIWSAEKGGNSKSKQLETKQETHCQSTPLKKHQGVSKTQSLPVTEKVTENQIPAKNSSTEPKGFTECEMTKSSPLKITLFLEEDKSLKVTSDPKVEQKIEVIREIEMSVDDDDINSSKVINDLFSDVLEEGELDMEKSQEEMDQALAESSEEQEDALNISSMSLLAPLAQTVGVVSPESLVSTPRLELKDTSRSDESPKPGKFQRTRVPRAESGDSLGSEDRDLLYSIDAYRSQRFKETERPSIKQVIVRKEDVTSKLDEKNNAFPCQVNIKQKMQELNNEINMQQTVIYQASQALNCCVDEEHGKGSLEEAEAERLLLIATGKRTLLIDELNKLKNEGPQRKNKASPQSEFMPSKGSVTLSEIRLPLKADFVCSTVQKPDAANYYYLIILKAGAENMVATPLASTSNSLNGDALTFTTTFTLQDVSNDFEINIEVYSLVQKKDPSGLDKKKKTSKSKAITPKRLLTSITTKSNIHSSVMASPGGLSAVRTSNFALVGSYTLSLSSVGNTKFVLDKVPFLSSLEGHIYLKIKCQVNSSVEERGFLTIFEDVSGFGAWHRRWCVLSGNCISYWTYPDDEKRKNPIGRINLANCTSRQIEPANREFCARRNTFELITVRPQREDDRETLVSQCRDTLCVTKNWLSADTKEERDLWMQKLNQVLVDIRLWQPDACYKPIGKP

GFP-anillin-wt (human) = molecular target: T2, GFP-anillin-wt (human) (UniProt Q9NQW6); test: as above
T2 sequence: T1 sequence with A41R, A42Q, A43P, A44L

With “DIAPH3 (endogenous) (from UniProt Q9NSV4 1-1193)” the binding [1] was “binds weakly” and the binding (GFP-anillin-wt (human)) was “binds”.
